{"source": "PubChem BioAssay AID1347075", "about": "(National Center for Advancing Translational Sciences (NCATS), 2019)", "note": "“And” between values parts separate entries of the source, which are not always exact repeats. Identical values can stand only once. Hit rate of the full screen: of about 400,000 compounds, about 5,500 (1.4%) were called active. The shares of active, inactive and inconclusive entries below differ from those in the screen. The call rests on the fitted dose curve; in most records, active means well fitted cell-killing curve with a large enough effect; inconclusive means small, poorly fitted or top-dose-only effect, or effect the other way; inactive means flat fitted curve, though single readings scatter. Potencies beside an inconclusive call are fits to weak or partial responses and may not hold up. On the % scale 0 is the no-effect control and ±100 the full control effect; potency means the concentration at half of the fitted maximal effect.", "data": [{"experiment": "qHTS assay for MDR1-selective chemotherapeutics: Primary screen using the parental adenocarcinoma cell KB-3-1; further: nearly all actives have a fitted effect of over 60% in size", "conditions": "KB-3-1 viability, CellTiter-Glo ATP luminescence, 72 h; activity change, negative = cytotoxic: at 46.1 µM (top of the series)", "method_in_brief": "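Using CellTiter-Glo luminescence, growth of non-resistant KB-3-1 adenocarcinoma cells is assessed 72 h after pin-tool compound addition at 37 °C. Normalized responses across the concentration series yield fitted curves.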", "values": [{"smiles": "CCc1ccc(NC(=O)CCS(=O)(=O)c2ccc(Cl)cc2)cc1", "activity change, negative = cytotoxic": "inconclusive: 0.663%"}, {"smiles": "COc1cc(NC(=O)c2nnn(Cc3ccc(F)cc3)c2N)cc(OC)c1", "Potency": "inconclusive: 14.6 µM [cytotoxic, partial curve, poor fit]"}, {"smiles": "CCC(=O)Nc1ccc(C(=O)OCc2ccc(Cl)c(Cl)c2)cc1", "activity change, negative = cytotoxic": "inactive: -6.39%"}, {"smiles": "COc1ccc(CN(C)C[C@@H]2OCc3cnnn3CCCC(=O)N([C@H](C)CO)C[C@H]2C)cc1", "activity change, negative = cytotoxic": "inactive: 4.46%"}, {"smiles": "COc1ccc(-c2cc(C(F)F)n3ncc(C(=O)Nc4cc(C)on4)c3n2)cc1", "activity change, negative = cytotoxic": "inactive: -7.62%"}, {"smiles": "COc1cccc(/C=N/NC(=O)c2cc3c(OC)ccc(OC)c3[nH]2)c1O", "Potency": "inconclusive: 16.4 µM [cytotoxic, single point]"}, {"smiles": "Cc1ccc(CS(=O)(=O)c2nc3c(c(N(C)C)n2)CCCC3)cc1", "Potency": "inconclusive: 29.1 µM [cytotoxic, single point]"}, {"smiles": "CC(C)C[C@H]1CN([C@@H](CC(C)C)CN2CCC[C@H]2CN2C(=O)C(=O)NC[C@@H]2Cc2ccc(O)cc2)C(=O)C(=O)N1CC1CCCCC1", "Potency": "inconclusive: 20.6 µM [rising, partial curve]"}, {"smiles": "O=C(NC(c1ccc(F)cc1)c1ccc2ccccc2n1)C1CCN(CCOc2ccc(Cl)cc2Cl)CC1", "note": "(stereo not given)", "Potency": "inconclusive: 29.1 µM [cytotoxic, single point]"}, {"smiles": "Cn1nccc1NS(=O)(=O)c1ccc(NC(=O)C(F)(F)F)cc1", "activity change, negative = cytotoxic": "inactive: -6.1%"}, {"smiles": "Cc1[nH]c2ccc(-c3nnc(SCC(=O)NCc4ccco4)n3Cc3ccccc3)cc2c1C", "Potency": "inconclusive: 29.1 µM [cytotoxic, single point]"}, {"smiles": "Cc1cccc(N2CCN(C(=O)c3c(-c4ccccc4)noc3C)CC2)c1C", "Potency": "inconclusive: 4.61 µM [cytotoxic, full curve, poor fit]"}, {"smiles": "O=C1SC(SC(=Nc2ccccc2)Nc2ccccc2)C(=O)N1c1ccccc1", "note": "(stereo not given)", "Potency": "inconclusive: 20.6 µM [rising, single point]"}, {"smiles": "Cc1ccc(C2CC(=O)N(Cc3ccccc3F)c3c2c(C)nn3-c2nc(C)cc(C)n2)cc1", "note": "(stereo not given)", "activity change, negative = cytotoxic": "inactive: -6.94%"}, {"smiles": "COC[C@@H]1CCCN1c1ccc2c(c1)O[C@@H](COCc1ccccc1)CN([C@H](C)c1ccccc1)S2(=O)=O", "activity change, negative = cytotoxic": "inactive: 0.315%"}, {"smiles": "Cc1csc(SCC(=O)Nc2cccc(C)c2C)n1", "activity change, negative = cytotoxic": "inactive: 5.22%"}, {"smiles": "COc1ccc(OCC(=O)Nc2cc(-c3nn(C)c(=O)c4ccccc34)ccc2N2CCOCC2)cc1", "Potency": "inconclusive: 18.4 µM [cytotoxic, single point]"}, {"smiles": "COC(=O)c1sccc1NS(=O)(=O)c1ccc(OC)cc1", "activity change, negative = cytotoxic": "inactive: -1.87%"}, {"smiles": "Cc1c(NC(=O)c2cc([N+](=O)[O-])ccc2N2CCOCC2)cccc1-c1nc2ccccc2o1", "Potency": "inconclusive: 29.1 µM [cytotoxic, single point]"}, {"smiles": "Cc1cc(=O)[nH]c(SCC(=O)N2CCc3ccccc3C2)n1", "Potency": "inconclusive: 32.6 µM [cytotoxic, single point]"}, {"smiles": "CC1C(=O)N(Cc2cn(Cc3ccco3)nn2)CCS(=O)(=O)N1Cc1ccc(-c2ccccc2Cl)cc1", "note": "(stereo not given)", "activity change, negative = cytotoxic": "inactive: -8.98%"}, {"smiles": "Cc1ccc(O)c(NC(=S)NC(=O)/C=C/c2ccco2)c1", "Potency": "active: 10.3 µM"}, {"smiles": "Cc1nn(-c2ccc(F)cc2)c(-n2cccc2)c1C(=O)N1CCN(c2ccc(F)cc2)CC1", "Potency": "inconclusive: 20.6 µM [cytotoxic, single point]"}, {"smiles": "COc1ccc(NC(C)=O)cc1NC(=O)CN1CCN(C2c3ccccc3-c3ccccc32)CC1", "Potency": "inconclusive: 29.1 µM [cytotoxic, single point]"}, {"smiles": "CSc1cccc(NC(=O)COc2ccccc2)c1", "Potency": "inconclusive: 29.1 µM [cytotoxic, single point]"}, {"smiles": "COc1ccc(NC(=O)c2nnn(Cc3ccccc3C)c2N)c(OC)c1", "Potency": "inconclusive: 8.2 µM [cytotoxic, partial curve]"}, {"smiles": "Cc1ccccc1-n1c(SCC(=O)Nc2ccccc2)nc2nc3c(cc2c1=O)CCCC3", "Potency": "inconclusive: 11.6 µM [rising, partial curve]"}, {"smiles": "Cc1nn2c(=O)[nH]cnc2c1Cl", "activity change, negative = cytotoxic": "inconclusive: 32.2%"}, {"smiles": "O=C(CSc1ccc(-c2ccccn2)nn1)Nc1ccc(F)c(F)c1", "Potency": "inconclusive: 20.6 µM [cytotoxic, single point]"}, {"smiles": "COc1ccc(-c2cc(C(F)(F)F)c(C#N)c(SCC(=O)Nc3ccccc3C#N)n2)cc1", "Potency": "inconclusive: 25.9 µM [cytotoxic, single point]"}, {"smiles": "O=S(=O)(NCCNCC=Cc1ccc(Br)cc1)c1cccc2cnccc12", "Potency": "inconclusive: 23.1 µM [cytotoxic, single point]"}, {"smiles": "COc1ccc(/C=C/C(=O)N(C)C2(C)CCS(=O)(=O)C2)cc1", "note": "(stereo not given)", "activity change, negative = cytotoxic": "inactive: -6.82%"}, {"smiles": "CC(=O)NNC(=O)N1Cc2ccccc2Oc2ccc(Cl)cc21", "Potency": "inconclusive: 18.4 µM [rising, single point]"}, {"smiles": "Cc1ccc(Oc2ncccc2NC(=O)CC2(CC(=O)O)CCCC2)c2c1CCC2", "activity change, negative = cytotoxic": "inactive: 8.91%"}, {"smiles": "O=C(O)CCC(=O)N1CCN(c2nc(-c3ccccc3)c3cc(Br)ccc3n2)CC1", "activity change, negative = cytotoxic": "inactive: 6.33%"}, {"smiles": "COCCNC(=O)C1(C)CCCN(Cc2ccc(Cl)c(Cl)c2)C1", "note": "(stereo not given)", "activity change, negative = cytotoxic": "inactive: -3.5%"}, {"smiles": "CC(C)CNS(=O)(=O)c1ccc(CC(C)C)cc1", "Potency": "inconclusive: 0.82 µM [rising, full curve, poor fit]"}, {"smiles": "Cc1ccc(N2C(=O)C3C4C=CC(CNC(=S)N5CCN(c6ccccn6)CC5)(O4)C3C2=O)cc1", "note": "(stereo not given)", "activity change, negative = cytotoxic": "inactive: 0.841%"}, {"smiles": "CCCOc1ccc(/C=C/c2[nH]c(=O)[nH]c(=O)c2[N+](=O)[O-])cc1OCC", "activity change, negative = cytotoxic": "inactive: 0.105%"}, {"smiles": "CCC(=O)/C=C1\\Sc2ccc(OC)cc2N1CCO", "activity change, negative = cytotoxic": "inactive: -10.8%"}, {"smiles": "COc1cccc(NC(=O)CNC(=O)c2ccc(F)cc2)c1", "activity change, negative = cytotoxic": "inactive: -0.253%"}, {"smiles": "COc1ccc(-c2nn(CC(=O)NC3CCCC3)c3c2cnc2ccc(F)cc23)cc1", "activity change, negative = cytotoxic": "inactive: -23.3%"}, {"smiles": "CC1CCCN(S(=O)(=O)c2ccc(C(=O)Nc3nnc(-c4ccccc4Cl)o3)cc2)C1", "note": "(stereo not given)", "Potency": "active: 7.31 µM"}, {"smiles": "CC1(C(=O)NCc2ccccc2Br)CCN1Cc1ccc(-c2ccccc2)o1", "note": "(stereo not given)", "Potency": "active: 5.17 µM"}, {"smiles": "Cc1[nH]n2c(=O)c3c(nc2c1-c1ccc(F)cc1)CCCC3", "Potency": "inconclusive: 29.1 µM [cytotoxic, single point]"}, {"smiles": "O=c1nc2sc3ccccc3n2c(=O)n1-c1cccc(Cl)c1", "Potency": "inconclusive: 20.6 µM [cytotoxic, single point]"}, {"smiles": "NNC(=O)c1[nH]c2ccc([N+](=O)[O-])cc2c1-c1ccccc1", "Potency": "inconclusive: 23.1 µM [cytotoxic, single point]"}, {"smiles": "COc1cc(N2C(=O)C=CC2=O)c(OC)cc1Cl", "Potency": "inconclusive: 29.1 µM [cytotoxic, single point]"}, {"smiles": "COc1ccc2nc(SCC(=O)N3CCN(c4ccc(F)cc4)CC3)c(C#N)cc2c1", "Potency": "inconclusive: 29.1 µM [cytotoxic, single point]"}, {"smiles": "Cc1ccc(C(=O)C[n+]2cc(-c3ccccc3)n3c2CCCCC3)cc1", "Potency": "inconclusive: 10.3 µM [cytotoxic, partial curve] and active: 8.2 µM"}, {"smiles": "COc1ccc(/C=N/Nc2nnc(-c3ccccc3)c(=O)[nH]2)cc1", "Potency": "active: 5.17 µM"}, {"smiles": "COc1ccccc1N1CCN(C(=O)c2c(-c3ccccc3Cl)noc2C)CC1", "Potency": "active: 20.6 µM"}, {"smiles": "CCN(CC)c1nc(-c2ccc(C(C)(C)C)cc2)nc2ccccc12", "Potency": "inconclusive: 18.4 µM [cytotoxic, partial curve, poor fit]"}, {"smiles": "COc1cc(NC(=O)c2ccc(C(C)(C)C)cc2)c(OC)cc1NC(=O)CN1CCCCC1", "Potency": "inconclusive: 23.1 µM [cytotoxic, single point]"}, {"smiles": "CS(=O)(=O)Nc1ccc(C(=O)CSc2nnc(C3CC3)n2C2CC2)cc1", "activity change, negative = cytotoxic": "inactive: 3%"}, {"smiles": "Cc1ccc(C)c(NC(=O)CSc2nc(=O)n(CCN3CCOCC3)c3c2CCCC3)c1", "Potency": "inconclusive: 29.1 µM [rising, single point]"}, {"smiles": "CC(=O)O/N=C/c1c(NCc2ccccc2)nc2c(C)cccn2c1=O", "activity change, negative = cytotoxic": "inactive: -16.9%"}, {"smiles": "COc1ccc2c(CNCC(C)c3ccccc3)c(C(=O)O)n(Cc3ccc(F)cc3Cl)c2c1", "note": "(stereo not given)", "activity change, negative = cytotoxic": "inactive: -9.87%"}, {"smiles": "CCCC(=O)N(CCc1ccc(OC)cc1)Cc1nc2ccccc2c(=O)[nH]1", "activity change, negative = cytotoxic": "inactive: 0.89%"}, {"smiles": "COCCCNC(=O)c1c[nH]c2ccc(S(=O)(=O)N3CCc4ccccc43)cc2c1=O", "Potency": "inconclusive: 18.4 µM [cytotoxic, single point]"}, {"smiles": "Cc1ccc2[nH]c(-c3cccc(N)c3)cc2c1", "activity change, negative = cytotoxic": "inactive: 3.27%"}, {"smiles": "O=C(NCc1ccccc1Cl)[C@H]1CCCN1C(=O)[C@H]1CCCN1", "activity change, negative = cytotoxic": "inconclusive: 8.69%"}, {"smiles": "COc1ccc(/C=C/C(=O)c2ccc([N+](=O)[O-])o2)cc1", "Potency": "active: 18.4 µM"}, {"smiles": "Cc1nc2cc(C(F)(F)F)ccc2n1CCNc1nc(-c2ccc([N+](=O)[O-])c(Cl)c2)cs1", "Potency": "inconclusive: 29.1 µM [cytotoxic, single point]"}, {"smiles": "O=C(Nc1ccccc1N1CCCC1)c1ccc(Cl)cc1Cl", "Potency": "inconclusive: 32.6 µM [cytotoxic, single point]"}, {"smiles": "CC(=O)Nc1nc2ccccc2n1Cc1ccccc1C", "Potency": "inconclusive: 29.1 µM [cytotoxic, single point]"}, {"smiles": "Nc1c(C(=O)Nc2nc3ccccc3s2)sc2nc(-c3cccs3)ccc12", "Potency": "active: 8.2 µM"}, {"smiles": "CCc1ccc2[nH]c(=O)c(CN(Cc3cccs3)Cc3nnnn3Cc3ccccc3)cc2c1", "Potency": "inconclusive: 16.4 µM [cytotoxic, single point]"}, {"smiles": "O=c1cc(NS(=O)(=O)c2ccccc2)nc(SCc2ccccc2Cl)[nH]1", "Potency": "inconclusive: 25.9 µM [cytotoxic, single point]"}, {"smiles": "Cc1cc(/C=C2/SC(=S)N(c3cccc(C(F)(F)F)c3)C2=O)c(C)n1-c1cccnc1", "Potency": "inconclusive: 14.6 µM [cytotoxic, partial curve, poor fit]"}]}]}
